No constants are given. Whether binding was seen depends on the method and setting. In cells and extracts the contact can be indirect. Some entries that bind do so weakly or less than the wild type. For part of these data: Sequences can lack the tags named with a protein. Values belong to the binder of their own block, whether it stands above or below them.
Experiments:
[1] = target: T1, TNFR1 (mouse, endogenous) (mouse (endogenous in MEFs)) (UniProt P25118); experiment: co-IP; complex I precipitated with TNFR1 antibody from Ripk1+/+ and Ripk1K612R/K612R MEFs treated with mTNFα (100 ng/ml) for indicated times; western blot
T1 sequence: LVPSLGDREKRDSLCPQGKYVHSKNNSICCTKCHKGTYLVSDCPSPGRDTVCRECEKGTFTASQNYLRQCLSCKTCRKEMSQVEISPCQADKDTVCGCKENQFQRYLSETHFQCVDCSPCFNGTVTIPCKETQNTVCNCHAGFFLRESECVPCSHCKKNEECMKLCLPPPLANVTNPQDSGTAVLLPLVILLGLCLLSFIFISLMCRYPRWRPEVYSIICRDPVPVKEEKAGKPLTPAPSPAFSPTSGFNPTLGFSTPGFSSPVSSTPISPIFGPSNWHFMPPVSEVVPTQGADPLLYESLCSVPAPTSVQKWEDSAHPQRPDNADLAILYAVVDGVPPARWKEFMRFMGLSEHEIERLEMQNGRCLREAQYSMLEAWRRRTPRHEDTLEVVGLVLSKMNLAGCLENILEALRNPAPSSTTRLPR

Sequences of proteins named here, by UniProt entry; tags and fusion partners are left off.
UniProt Q9QZL0: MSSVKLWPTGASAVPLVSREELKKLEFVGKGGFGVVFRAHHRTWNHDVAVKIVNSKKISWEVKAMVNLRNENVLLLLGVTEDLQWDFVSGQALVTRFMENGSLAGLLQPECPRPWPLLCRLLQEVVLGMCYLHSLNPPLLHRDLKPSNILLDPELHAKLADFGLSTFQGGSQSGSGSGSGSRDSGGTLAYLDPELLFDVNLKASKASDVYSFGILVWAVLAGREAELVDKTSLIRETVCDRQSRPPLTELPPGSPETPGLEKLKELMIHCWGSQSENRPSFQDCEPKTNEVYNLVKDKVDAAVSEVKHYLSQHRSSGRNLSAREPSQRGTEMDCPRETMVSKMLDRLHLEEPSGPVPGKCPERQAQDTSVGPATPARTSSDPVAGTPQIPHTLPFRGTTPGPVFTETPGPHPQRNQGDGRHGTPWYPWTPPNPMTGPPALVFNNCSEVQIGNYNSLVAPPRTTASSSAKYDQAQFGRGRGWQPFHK

[2] = target: RIPK3 (mouse, endogenous) (mouse (endogenous in MEFs and BMDMs)), Q9QZL0; experiment: co-IP; complex IIb precipitated with RIPK3 antibodies from Ripk1+/+ and Ripk1K612R/K612R MEFs pretreated with SM-164 (100 nM) or 5Z-7 (200 nM) for 2 h, then mTNFα (100 ng/ml)/Z-VAD (25 μM); western blot; settings: remark: other sources report otherwise
[3] = target: T2, myc-hRIPK1-WT (full length) (human), Q13546; experiment: co-IP; HEK293T cells cotransfected for 18 h; lysates precipitated with anti-Myc conjugated agarose beads; western blot; settings: remark: other sources report otherwise
T2 chain: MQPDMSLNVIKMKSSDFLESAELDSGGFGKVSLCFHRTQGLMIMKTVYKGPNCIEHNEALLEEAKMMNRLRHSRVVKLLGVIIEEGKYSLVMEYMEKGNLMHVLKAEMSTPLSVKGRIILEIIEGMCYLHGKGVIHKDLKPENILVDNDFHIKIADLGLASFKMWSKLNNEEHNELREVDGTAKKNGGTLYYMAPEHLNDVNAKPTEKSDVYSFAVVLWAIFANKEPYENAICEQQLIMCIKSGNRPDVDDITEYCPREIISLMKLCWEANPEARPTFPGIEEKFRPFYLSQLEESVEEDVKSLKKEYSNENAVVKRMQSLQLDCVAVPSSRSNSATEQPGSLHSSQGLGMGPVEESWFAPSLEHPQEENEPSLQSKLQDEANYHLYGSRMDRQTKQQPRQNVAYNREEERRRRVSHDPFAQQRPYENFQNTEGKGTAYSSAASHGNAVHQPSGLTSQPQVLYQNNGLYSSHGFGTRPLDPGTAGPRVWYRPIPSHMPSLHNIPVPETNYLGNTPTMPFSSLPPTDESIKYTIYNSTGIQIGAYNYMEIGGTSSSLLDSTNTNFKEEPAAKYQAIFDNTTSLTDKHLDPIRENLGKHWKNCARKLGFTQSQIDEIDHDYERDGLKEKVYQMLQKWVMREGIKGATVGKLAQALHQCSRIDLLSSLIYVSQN

[4] = target: RIPK3 (mouse, endogenous) (mouse (endogenous in MEFs and BMDMs)) (UniProt Q9QZL0); experiment: co-IP; complex IIb precipitated with RIPK3 antibodies from Ripk1+/+ and Ripk1K612R/K612R MEFs pretreated with SM-164 (100 nM) or 5Z-7 (200 nM) for 2 h, then mTNFα (100 ng/ml)/Z-VAD (25 μM); western blot
[5] = target: RIPK3 (mouse, endogenous) (mouse (endogenous in MEFs and BMDMs)) (UniProt Q9QZL0); experiment: co-IP; complex IIb isolated with RIPK3 antibody from primary BMDMs pretreated with Z-VAD (25 μM) or vehicle for 30 min, then LPS (50 ng/ml); western blot

B1: TAK1 (mouse, endogenous) (enzyme, UniProt Q62073 1-579)
chain: MSTASAASSSSSSSASEMIEAPSQVLNFEEIDYKEIEVEEVVGRGAFGVVCKAKWRAKDVAIKQIESESERKAFIVELRQLSRVNHPNIVKLYGACLNPVCLVMEYAEGGSLYNVLHGAEPLPYYTAAHAMSWCLQCSQGVAYLHSMQPKALIHRDLKPPNLLLVAGGTVLKICDFGTACDIQTHMTNNKGSAAWMAPEVFEGSNYSEKCDVFSWGIILWEVITRRKPFDEIGGPAFRIMWAVHNGTRPPLIKNLPKPIESLMTRCWSKDPSQRPSMEEIVKIMTHLMRYFPGADEPLQYPCQYSDEGQSNSATSTGSFMDIASTNTSNKSDTNMEQVPATNDTIKRLESKLLKNQAKQQSESGRLSLGASRGSSVESLPPTSEGKRMSADMSEIEARIVATAGNGQPRRRSIQDLTVTGTEPGQVSSRSSSPSVRMITTSGPTSEKPARSHPWTPDDSTDTNGSDNSIPMAYLTLDHQLQPLAPCPNSKESMAVFEQHCKMAQEYMKVQTEIALLLQRKQELVAELDQDEKDQQNTSRLVQEHKKLLDENKSLSTYYQQCKKQLEVIRSQQQKRQGTS
binding [1]: binds

B2: SHARPIN (mouse, endogenous) (protein, UniProt Q91WA6 1-380)
chain: MSPPAGGAAVAADPASPVVLLAVHAAVRPLGAGQDAEAQPRKLQLIADPERPGRFRLGLLGTEPGAVSLEWPLEAICYTVRGPNQHELQPPPGGPGTFSVHFLDPEEAQQWAALVRDATAEGQNGSGSPAPAPAPAMCPISPPCSSMAQIPKATQPEVDLPQSSGNFKKEELATRLSQAIAGGDEKAAAQVAAVLAQHHVALNVQLMEAWFPPGPIRLQVTVEDATSVLSSSSSAHVSLKIHPHCSIAALQDQVFSEFGFPPAVQRWVIGRCLCMPERSLASYGVSQDGDPAFLYLLSAPREVSGQSLQNSKMDRKLGLFPQSLGLPHDLQPSSSSLPSPSQPGWSCPSCTFINASNRPGCEMCSTQRPCAWDPLAAAST
binding [1]: binds

B3: HOIL (mouse, endogenous) (protein, UniProt Q9WUB0 1-508)
chain: MDEKTKKAEEMALSLARAVAGGDEQAAIKYATWLAEQRVPLRVQVKPEVSPTQDIRLCVSVEDAYMHTVTIWLTVRPDMTVASLKDMVFLDYGFPPSLQQWVVGQRLARDQETLHSHGIRRNGDGAYLYLLSARNTSLNPQELQRQRQLRMLEDLGFKDLTLQSRGPLEPVLPKPRTNQEPGQPDAAPESPPVGWQCPGCTFINKPTRPGCEMCCRARPETYQIPASYQPDEEERARLAGEEEALRQYQQRKQQQQEGNYLQHVQLEQRSLVLNTEPTECPVCYSVLAPGEAVVLRECLHTFCRECLQGTIRNSQEAEVACPFIDSTYSCPGKLLEREIRALLSPEDYQRFLDLGVSIAENRSTLSYHCKTPDCRGWCFFEDDVNEFTCPVCTRVNCLLCKAIHEHMNCREYQDDLALRAQNDVAARQTTEMLKVMLQQGEAMHCPQCRIVVQKKDGCDWIRCTVCHTEICWVTKGPRWGPGGPGDTSGGCRCRVNGIPCHPSCQNCH
binding [1]: binds

B4: TRADD (mouse, endogenous) (protein, UniProt Q3U0V2 1-310)
chain: MAAGQNGHEEWVGSAYLFLESAVDKVILSEAYTDPKKKVAIYKALQTALSESGDSSDVLQILKIHCSDPQLIVQLRFCGRVLCGRFLQAYREGALRTALQRCMAPALAQEALRLQLELRAGAEQLDSWLTDEERCLNYILAQKPDRLRDEELAELEDELCKLTCDCTGQGGAIQVASAGSKFPVSSPTEEKPLPAACQTFLFHGQLVVNRPLTLQDQQTFARSVGLKWRRVGRSLQRNCRALRDPALDSLAYEYERDGLYEQAFQLLRRFMQAEGRRATLQRLVEALEENELTSLAEDLLGQAEPDGGLA
binding [1]: binds

binding [2]: binds
B5: murine RIPK1 (receptor interacting protein kinase 1), wild type, Q60855 1-656 (protein)
chain: MQPDMSLDNIKMASSDLLEKTDLDSGGFGKVSLCYHRSHGFVILKKVYTGPNRAEYNEVLLEEGKMMHRLRHSRVVKLLGIIIEEGNYSLVMEYMEKGNLMHVLKTQIDVPLSLKGRIIVEAIEGMCYLHDKGVIHKDLKPENILVDRDFHIKIADLGVASFKTWSKLTKEKDNKQKEVSSTTKKNNGGTLYYMAPEHLNDINAKPTEKSDVYSFGIVLWAIFAKKEPYENVICTEQFVICIKSGNRPNVEEILEYCPREIISLMERCWQAIPEDRPTFLGIEEEFRPFYLSHFEEYVEEDVASLKKEYPDQSPVLQRMFSLQHDCVPLPPSRSNSEQPGSLHSSQGLQMGPVEESWFSSSPEYPQDENDRSVQAKLQEEASYHAFGIFAEKQTKPQPRQNEAYNREEERKRRVSHDPFAQQRARENIKSAGARGHSDPSTTSRGIAVQQLSWPATQTVWNNGLYNQHGFGTTGTGVWYPPNLSQMYSTYKTPVPETNIPGSTPTMPYFSGPVADDLIKYTIFNSSGIQIGNHNYMDVGLNSQPPNNTCKEESTSRHQAIFDNTTSLTDEHLNPIRENLGRQWKNCARKLGFTESQIDEIDHDYERDGLKEKVYQMLQKWLMREGTKGATVGKLAQALHQCCRIDLLNHLIRASQS

B6: A20 (mouse, endogenous) (enzyme, UniProt Q60769 1-775)
chain: MAEQLLPQALYLSNMRKAVKIRERTPEDIFKPTNGIIYHFKTMHRYTLEMFRTCQFCPQFREIIHKALIDRSVQASLESQKKLNWCREVRKLVALKTNGDGNCLMHAACQYMWGVQDTDLVLRKALCSTLKETDTRNFKFRWQLESLKSQEFVETGLCYDTRNWNDEWDNLVKMASADTPAARSGLQYNSLEEIHIFVLSNILRRPIIVISDKMLRSLESGSNFAPLKVGGIYLPLHWPAQECYRYPIVLGYDSQHFVPLVTLKDSGPELRAVPLVNRDRGRFEDLKVHFLTDPENEMKEKLLKEYLIVMEIPVQGWDHGTTHLINAAKLDEANLPKEINLVDDYFELVQHEYKKWQENSDQARRAAHAQNPLEPSTPQLSLMDIKCETPNCPFFMSVNTQPLCHECSERRQKNQSKLPKLNSKLGPEGLPGVGLGSSNWSPEETAGGPHSAPPTAPSLFLFSETTAMKCRSPGCPFTLNVQHNGFCERCHARQINASHTADPGKCQACLQDVTRTFNGICSTCFKRTTAEPSSSLTSSIPASCHQRSKSDPSQLIQSLTPHSCHRTGNVSPSGCLSQAARTPGDRAGTSKCRKAGCMYFGTPENKGFCTLCFIEYRENKQSVTASEKAGSPAPRFQNNVPCLGRECGTLGSTMFEGYCQKCFIEAQNQRFHEARRTEEQLRSSQHRDMPRTTQVASRLKCARASCKNILACRSEELCMECQHLSQRVGSVAHRGEPTPEEPPKQRCRAPACDHFGNAKCNGYCNECYQFKQMYG
binding [1]: binds

binding [3]: binds
B7: HA-hRIPK1-WT, Q13546 1-671 (protein)
chain: T2 chain

binding [4]: binds
binding [5]: binds
B8: MLKL (mouse, endogenous) (protein, UniProt Q9D2Y4 1-472)
chain: MDKLGQIIKLGQLIYEQCEKMKYCRKQCQRLGNRVHGLLQPLQRLQAQGKKNLPDDITAALGRFDEVLKEANQQIEKFSKKSHIWKFVSVGNDKILFHEVNEKLRDVWEELLLLLQVYHWNTVSDVSQPASWQQEDRQDAEEDGNENMKVILMQLQISVEEINKTLKQCSLKPTQEIPQDLQIKEIPKEHLGPPWTKLKTSKMSTIYRGEYHRSPVTIKVFNNPQAESVGIVRFTFNDEIKTMKKFDSPNILRIFGICIDQTVKPPEFSIVMEYCELGTLRELLDREKDLTMSVRSLLVLRAARGLYRLHHSETLHRNISSSSFLVAGGYQVKLAGFELSKTQNSISRTAKSTKAERSSSTIYVSPERLKNPFCLYDIKAEIYSFGIVLWEIATGKIPFEGCDSKKIRELVAEDKKQEPVGQDCPELLREIINECRAHEPSQRPSVDGRSLSGRERILERLSAVEESTDKKV
